Results are given in words; binding and its absence hold for the method and conditions named. In cells and extracts the contact can be indirect. Some entries that bind do so weakly or less than the wild type.

Chains of the proteins cited; added tags and fusions are not shown. Lines headed by an entry give the natural chain unless they say otherwise; changes in a name come on top.
UniProt O15379: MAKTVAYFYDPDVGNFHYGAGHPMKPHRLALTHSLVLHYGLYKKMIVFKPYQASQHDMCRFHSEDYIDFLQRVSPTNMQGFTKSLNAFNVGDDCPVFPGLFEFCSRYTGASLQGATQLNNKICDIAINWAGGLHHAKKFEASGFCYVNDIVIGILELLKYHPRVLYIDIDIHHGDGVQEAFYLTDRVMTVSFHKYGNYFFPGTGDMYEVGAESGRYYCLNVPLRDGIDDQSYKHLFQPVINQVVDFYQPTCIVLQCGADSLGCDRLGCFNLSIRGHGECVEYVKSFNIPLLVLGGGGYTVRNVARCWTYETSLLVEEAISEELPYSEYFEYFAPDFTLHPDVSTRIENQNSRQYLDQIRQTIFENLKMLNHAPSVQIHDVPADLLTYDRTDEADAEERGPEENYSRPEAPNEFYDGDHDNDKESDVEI
UniProt O75376: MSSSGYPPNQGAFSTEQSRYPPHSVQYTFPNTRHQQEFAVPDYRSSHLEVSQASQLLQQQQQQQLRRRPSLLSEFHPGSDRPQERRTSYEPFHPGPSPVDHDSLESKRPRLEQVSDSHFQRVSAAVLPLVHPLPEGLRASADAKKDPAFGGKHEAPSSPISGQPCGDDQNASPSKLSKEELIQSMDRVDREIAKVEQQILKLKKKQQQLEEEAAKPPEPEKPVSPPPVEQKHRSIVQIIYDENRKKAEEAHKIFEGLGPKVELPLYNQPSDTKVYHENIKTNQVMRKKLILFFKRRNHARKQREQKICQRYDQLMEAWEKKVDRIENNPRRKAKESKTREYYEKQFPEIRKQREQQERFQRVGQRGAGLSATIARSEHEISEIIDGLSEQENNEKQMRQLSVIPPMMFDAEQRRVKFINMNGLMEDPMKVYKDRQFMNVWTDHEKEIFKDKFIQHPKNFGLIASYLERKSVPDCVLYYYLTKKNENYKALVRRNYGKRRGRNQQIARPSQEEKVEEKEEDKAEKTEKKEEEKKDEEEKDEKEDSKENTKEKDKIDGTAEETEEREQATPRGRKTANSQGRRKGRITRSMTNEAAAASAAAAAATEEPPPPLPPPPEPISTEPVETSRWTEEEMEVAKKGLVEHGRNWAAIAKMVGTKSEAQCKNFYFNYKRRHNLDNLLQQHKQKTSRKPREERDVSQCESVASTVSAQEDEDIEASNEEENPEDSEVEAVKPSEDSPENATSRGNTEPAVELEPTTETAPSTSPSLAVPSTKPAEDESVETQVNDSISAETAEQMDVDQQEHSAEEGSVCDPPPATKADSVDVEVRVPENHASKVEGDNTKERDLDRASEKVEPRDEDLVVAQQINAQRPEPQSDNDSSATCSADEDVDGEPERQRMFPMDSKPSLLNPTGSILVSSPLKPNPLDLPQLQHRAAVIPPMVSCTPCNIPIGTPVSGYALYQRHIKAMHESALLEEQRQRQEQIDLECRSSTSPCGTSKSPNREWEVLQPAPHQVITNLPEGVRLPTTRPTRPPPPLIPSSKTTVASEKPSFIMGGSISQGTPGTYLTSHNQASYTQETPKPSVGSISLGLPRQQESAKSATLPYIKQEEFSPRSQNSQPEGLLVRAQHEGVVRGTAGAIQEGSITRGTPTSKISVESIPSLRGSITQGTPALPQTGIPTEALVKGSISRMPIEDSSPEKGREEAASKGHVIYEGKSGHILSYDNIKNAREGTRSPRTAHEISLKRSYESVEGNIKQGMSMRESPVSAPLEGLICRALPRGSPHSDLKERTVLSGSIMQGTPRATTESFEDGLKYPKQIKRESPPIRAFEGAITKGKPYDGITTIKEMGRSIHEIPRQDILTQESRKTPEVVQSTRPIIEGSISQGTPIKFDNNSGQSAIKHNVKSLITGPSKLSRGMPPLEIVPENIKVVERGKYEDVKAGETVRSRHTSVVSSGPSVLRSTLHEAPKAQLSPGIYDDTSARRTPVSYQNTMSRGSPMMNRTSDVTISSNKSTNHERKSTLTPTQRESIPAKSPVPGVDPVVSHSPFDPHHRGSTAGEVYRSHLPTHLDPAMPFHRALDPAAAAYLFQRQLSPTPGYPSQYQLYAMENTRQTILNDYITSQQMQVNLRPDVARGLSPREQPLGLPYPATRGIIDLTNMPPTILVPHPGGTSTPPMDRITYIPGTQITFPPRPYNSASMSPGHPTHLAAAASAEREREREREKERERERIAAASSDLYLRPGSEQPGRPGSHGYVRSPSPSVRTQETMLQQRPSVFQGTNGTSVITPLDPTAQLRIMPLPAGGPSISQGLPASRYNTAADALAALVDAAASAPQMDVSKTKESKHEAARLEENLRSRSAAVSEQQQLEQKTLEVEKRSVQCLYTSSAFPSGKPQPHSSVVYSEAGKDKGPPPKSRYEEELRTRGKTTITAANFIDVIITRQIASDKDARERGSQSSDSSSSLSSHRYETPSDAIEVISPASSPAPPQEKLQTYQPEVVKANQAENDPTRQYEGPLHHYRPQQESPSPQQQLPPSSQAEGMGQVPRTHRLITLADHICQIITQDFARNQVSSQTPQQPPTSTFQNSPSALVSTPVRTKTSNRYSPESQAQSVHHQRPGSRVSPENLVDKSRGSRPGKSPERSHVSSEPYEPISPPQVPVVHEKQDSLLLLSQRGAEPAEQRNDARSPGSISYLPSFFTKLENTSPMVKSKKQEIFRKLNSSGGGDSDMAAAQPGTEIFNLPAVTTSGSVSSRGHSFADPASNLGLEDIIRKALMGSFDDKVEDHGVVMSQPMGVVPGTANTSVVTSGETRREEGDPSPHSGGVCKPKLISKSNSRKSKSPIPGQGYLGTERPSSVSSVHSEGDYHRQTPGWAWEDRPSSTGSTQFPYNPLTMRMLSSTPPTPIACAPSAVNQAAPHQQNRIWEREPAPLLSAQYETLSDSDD

The record followed here is paper doi:10.1101/2024.01.29.24301801.

Experiment [1] concerns the target FLAG-tagged HDAC3 R359C variant (HEK293T) (human) (UniProt O15379). The experiment can be described thus: co-IP.
Experiment [2] addresses FLAG-tagged HDAC3 G267S variant (HEK293T) (human) (UniProt O15379). The experiment can be described thus: co-IP.

For “nuclear receptor co-repressor 1 (NCoR1), full-length (from UniProt O75376 1-2440)”, the binding result in experiment [1] and in experiment [2] was “binds” throughout.
